# Assay results as given in PubChem BioAssay AID1347075 (National Center for Advancing Translational Sciences (NCATS), 2019).
# Among all 400,000 compounds or so, about 5,500 (1.4%) were called active. This list was built around the results that the source calls inconclusive (neither active nor inactive); the mix of calls is not that of the screen. Calls come from the whole dose curve; as a rule, active = well fitted cell-killing curve with a large enough effect; inconclusive = small, poorly fitted or top-dose-only effect, or effect the other way; inactive = flat fitted curve, though single readings scatter. A potency beside an inconclusive call is a rough fit, not a confirmed value.
# Experiment: qHTS assay for MDR1-selective chemotherapeutics: Primary screen using the parental adenocarcinoma cell KB-3-1; note: nearly all actives have a fitted effect of over 60% in size
# Conditions: KB-3-1 viability, CellTiter-Glo ATP luminescence, 72 h; series mostly up to 46.1 µM
# From the text: A prime difficulty in effectively treating cancer is the development of cellular resistance to multiple structurally unrelated anticancer drugs, a phenomenon known as multidrug resistance (MDR). […] Numerous strategies to overcome P-gp-mediated MDR have been explored, including the design of drugs that evade recognition and efflux, and development of inhibitors to block efflux and restore drug accumulation. […] An alternative approach is to exploit resistance by identifying drugs that target MDR cells over the non-resistant parental cells from which they were selected. […]
# Our goal is to identify compounds that selectively kill P-gp-expressing MDR cells. […] This assay will be utilized to conduct a quantitative high-throughput screen (qHTS) in collaboration with the NIH Chemical Genomics Center to identify selective agents, and probe hits arising from the screen will be validated using secondary assays and characterized through a well-established follow-up research program. […]
# Briefly, 5 microL of media containing either KB-3-1 cells (columns 1-2, 4-48) are dispensed into Greiner white, treated solid-bottom 1536-well assay plates (media-only control is added to column 3). […] CellTiter-Glo (2.5 µL/well) is then added, and the plates are read in a ViewLux reader (Perkin-Elmer, clear luminescence filter, 1 second exposure, 1x binning) following a 10 minute incubation. […]
# Potency is the fitted concentration of half-maximal effect.
row,Compound,Potency
1,CC(c1ccccc1)N1C(=O)c2ccc(C(=O)Nc3ccc(Br)cc3C(=O)O)cc2C1=O (configuration not stated),"inconclusive: 18.4 µM [cytotoxic, partial curve, poor fit]"
2,CCCOc1ccc(C2C(C(=O)c3cc4ccccc4o3)=C(O)C(=O)N2c2cc(C)on2)cc1 (configuration not stated),"inconclusive: 25.9 µM [cytotoxic, single point]"
